Experimental data: PubChem BioAssay AID504791 (Drosophila RNAi Screening Center, 2011)

Test: 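Genes whose knock-down strengthens or weakens small-RNA reporter silencing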 (primary screen)
Cell system: Drosophila S2-derived reporter cells
Knock-down reagent: long dsRNA against Drosophila genes, about 150-250 ng dsRNA per well (siRNA assay); about 80-120 ng (miRNA assay)
Time to read-out: about 5 days (siRNA assay); about 4 days (miRNA assay)
Challenge: copper sulfate induction of reporters: 25 µM (siRNA assay); 200 mM stated (miRNA assay), 1-2 days before reading
Measured: 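Dual luciferase assay: Renilla to firefly signal ratio in each well, scaled to the mean ratio of its plate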
Reading the numbers: siRNA reporter hit score: higher = 3 marks a strong hit with raised ratio; -3 a strong hit with lowered ratio
Call rule: 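a well was a first-pass pick when its plate-scaled ratio rose above 1.5 (siRNA assay) or 1.6 (miRNA assay), or dropped below 0.6; a gene counted only if two separate dsRNAs agreed on retest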
In all, the deposit lists about 23,000 reagents; this is a random part of those with a known target gene and a result. In the full data, 199 (0.86%) were called active. 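Plate-scaled ratios behind the calls are not deposited; printed light signals are raw; many rows marked increased or decreased are still called inactive.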 Unmarked entries are inactive. Names joined by + are all predicted targets of the reagent.

| Target gene | DRSC id | siRNA reporter hit score | stable siRNA reporter change | miRNA reporter change | stable assay Renilla, run 1 (luminescence) | stable assay firefly, run 1 (luminescence) |
| --- | --- | --- | --- | --- | --- | --- |
| Cpr64Ac | DRSC08462 | – | – | – | 6191 | 3.46e5 |
| Csp | DRSC11860 | – | – | – | 8826 | 3.54e5 |
| Taf7 | DRSC15445 | – | – | – | 5330 | 3.80e5 |
| CG17544 | DRSC02624 | – | – | – | 68924 | 1.83e6 |
| Pgant1 | DRSC07095 | – | – | – | 6850 | 4.52e5 |
| GstE1 | DRSC07437 | – | – | – | 7135 | 3.99e5 |
| aralar1 | DRSC13987 | – | – | – | 8190 | 3.56e5 |
| aralar1 | DRSC16901 | – | – | – | 6967 | 3.79e5 |
| CR18275 + CG13373 | DRSC17900 | – | reporter ratio lowered past the hit cutoff | – | 5518 | 6.49e5 |
| Gadd45 | DRSC06033 | – | – | – | 5851 | 2.51e5 |
| crn | DRSC18184 | – | – | – | 6587 | 5.02e5 |
| crn | DRSC18185 | – | – | – | 6947 | 3.88e5 |
| crn | DRSC18755 | – | – | – | 6470 | 3.41e5 |
| SkpF + CG5357 (retired record) | DRSC04120 | – | – | – | 5828 | 4.16e5 |
| CG12237 | DRSC19449 | – | – | – | 4111 | 4.03e5 |
| CG12237 | DRSC22256 | – | – | – | 10922 | 8.62e5 |
| CG2663 | DRSC12314 | – | – | – | 6379 | 5.09e5 |
| Elo68beta | DRSC09860 | – | – | – | 5962 | 4.51e5 |
| CG4572 | DRSC15603 | – | – | – | 9905 | 3.42e5 |
| CG7084 | DRSC16194 | – | – | – | 7748 | 2.77e5 |
| foxo | DRSC13017 | – | – | – | 3167 | 1.86e5 |
| foxo | DRSC15463 | – | – | – | 7786 | 3.95e5 |
| CNMaR | DRSC08992 | – | – | – | 3691 | 3.37e5 |
| CNMaR | DRSC10224 | – | – | – | 5499 | 3.31e5 |
| CG6843 | DRSC10725 | – | – | – | 8518 | 5.61e5 |
| Madm | DRSC12129 | – | – | – | 7258 | 4.22e5 |
| Pof | DRSC04405 | – | – | – | 18632 | 1.60e6 |
| CG4860 | DRSC15664 | – | – | – | 5295 | 3.47e5 |
| CG4860 | DRSC21755 | – | – | – | 8755 | 4.49e5 |
| CG13083 | DRSC02187 | – | – | – | 6235 | 3.22e5 |
| LIMK1 | DRSC19811 | – | – | – | 7099 | 2.99e5 |
| AIMP1 | DRSC07118 | – | – | – | 6287 | 4.05e5 |
| CG32301 | DRSC08613 | – | – | – | 5599 | 3.21e5 |
| CG7886 | DRSC16333 | – | – | – | 7427 | 3.76e5 |
| CG17744 | DRSC10286 | – | – | – | 5782 | 3.57e5 |
| RpS14b | DRSC18711 | 3 | – | – | 6314 | 5.35e5 |
| CG9123 | DRSC20156 | – | – | – | 6558 | 5.97e5 |
| resilin | DRSC05627 | – | – | – | 7091 | 4.19e5 |
| resilin | DRSC06595 | – | – | – | 6462 | 3.68e5 |
| CG31534 (retired record) | DRSC12141 | – | – | – | 10307 | 4.84e5 |
| CG31534 (retired record) | DRSC12289 | – | – | – | 6946 | 3.68e5 |
| CHKov2 | DRSC14262 | – | – | – | 12506 | 6.59e5 |
| CG3544 | DRSC00613 | – | – | – | 34439 | 1.76e5 |
| Hr39 | DRSC03346 | – | – | – | 7259 | 4.78e5 |
| CG11125 | DRSC06042 | – | – | – | 6818 | 2.65e5 |
| CG9626 | DRSC16525 | – | – | – | 8046 | 4.86e5 |
| CG34242 | DRSC09185 | – | – | – | 5372 | 4.56e5 |
| CG12310 | DRSC09878 | – | – | – | 8011 | 3.58e5 |
| gammaTub23C | DRSC00820 | – | – | – | 1.35e5 | 4.90e5 |
| Idh3g | DRSC15699 | – | – | – | 6918 | 3.67e5 |
| Mst84Dd | DRSC12600 | – | – | – | 7475 | 5.82e5 |
| CG17917 | DRSC12570 | – | – | – | 6596 | 3.94e5 |
| CG8072 | DRSC10960 | – | – | – | 6575 | 3.80e5 |
| GIIIspla2 | DRSC18094 | – | – | – | 8187 | 5.87e5 |
| CG42490 (retired record) | DRSC01649 | – | – | – | 5175 | 4.73e5 |
| Yod1 | DRSC10433 | – | – | – | 7755 | 4.04e5 |
| mTerf3 | DRSC11759 | – | – | – | 7639 | 2.79e5 |
| CG18754 | DRSC15387 | – | – | – | 7662 | 5.46e5 |
| CG13972 | DRSC14715 | – | – | – | 6422 | 5.50e5 |
| Nufip | DRSC10397 | – | – | – | 8525 | 3.92e5 |
| CG2641 | DRSC15441 | – | – | – | 6831 | 4.19e5 |
| CG18273 | DRSC18150 | – | reporter ratio lowered past the hit cutoff | – | 5107 | 6.48e5 |
| CG18273 | DRSC18505 | – | reporter ratio raised past the hit cutoff | – | 2064 | 75318 |
| Pih1D1 | DRSC02897 | – | – | – | 65408 | 3.21e5 |
| CG42784 | DRSC02534 | – | – | – | 4904 | 1.13e6 |
| CG42784 | DRSC02535 | – | – | – | 5740 | 2.34e5 |
| CG42784 | DRSC22804 | – | – | – | 2519 | 2.45e5 |
| CG42784 | DRSC23000 | – | – | – | 3043 | 2.88e5 |
| ATPsynCF6 | DRSC14092 | – | – | – | 5766 | 3.09e5 |
| Pgm1 | DRSC10490 | – | – | – | 8315 | 2.82e5 |
| c12.1 | DRSC18750 | – | – | – | 5531 | 4.49e5 |
| Pex6 + Hao | DRSC06097 | – | – | – | 8678 | 5.13e5 |
| Pex6 + Hao | DRSC06704 | – | – | – | 7692 | 5.37e5 |
| Ir94h | DRSC15232 | – | – | – | 6132 | 2.47e5 |
| Prp19 | DRSC07434 | – | – | – | 5387 | 2.34e5 |
| Prp19 | DRSC23905 | – | – | reporter ratio lowered past the hit cutoff | – | – |
| CG4582 | DRSC15605 | – | – | – | 6335 | 3.55e5 |
| POSH | DRSC07499 | – | – | – | 6114 | 3.21e5 |
| CG14565 | DRSC11726 | – | – | – | 6639 | 3.56e5 |
| insb | DRSC06995 | – | – | – | 6675 | 3.05e5 |
| CG30383 | DRSC05062 | – | – | – | 6007 | 4.26e5 |
| CG16798 | DRSC02517 | – | – | – | 7710 | 5.06e5 |
| CG9297 | DRSC16469 | – | reporter ratio lowered past the hit cutoff | reporter ratio lowered past the hit cutoff | 7807 | 6.99e5 |

Part of the list above, reduced to “stable assay Renilla, run 1 (luminescence)”.
CG4860 [DRSC15664]	5295
CG4860 [DRSC21755]	8755
CG13083 [DRSC02187]	6235
LIMK1 [DRSC19811]	7099
AIMP1 [DRSC07118]	6287
CG32301 [DRSC08613]	5599
CG7886 [DRSC16333]	7427
CG17744 [DRSC10286]	5782
RpS14b [DRSC18711]	6314
CG9123 [DRSC20156]	6558
resilin [DRSC05627]	7091
resilin [DRSC06595]	6462
CG31534 (retired record) [DRSC12141]	10307
